In the supplement of paper PMC11732987, “Enantioselective OTUD7B fragment discovery through chemoproteomics screening and high-throughput optimisation” (Communications Chemistry, 2025):
This is one part of the list. The data scatter; read single values as rough.

Protein sequences, listed by entry. Tags and fused reporters are not part of them. Lines headed by an entry give the natural chain unless they say otherwise; changes in a name come on top. Residues count along the entry.
UniProt Q9UJX2: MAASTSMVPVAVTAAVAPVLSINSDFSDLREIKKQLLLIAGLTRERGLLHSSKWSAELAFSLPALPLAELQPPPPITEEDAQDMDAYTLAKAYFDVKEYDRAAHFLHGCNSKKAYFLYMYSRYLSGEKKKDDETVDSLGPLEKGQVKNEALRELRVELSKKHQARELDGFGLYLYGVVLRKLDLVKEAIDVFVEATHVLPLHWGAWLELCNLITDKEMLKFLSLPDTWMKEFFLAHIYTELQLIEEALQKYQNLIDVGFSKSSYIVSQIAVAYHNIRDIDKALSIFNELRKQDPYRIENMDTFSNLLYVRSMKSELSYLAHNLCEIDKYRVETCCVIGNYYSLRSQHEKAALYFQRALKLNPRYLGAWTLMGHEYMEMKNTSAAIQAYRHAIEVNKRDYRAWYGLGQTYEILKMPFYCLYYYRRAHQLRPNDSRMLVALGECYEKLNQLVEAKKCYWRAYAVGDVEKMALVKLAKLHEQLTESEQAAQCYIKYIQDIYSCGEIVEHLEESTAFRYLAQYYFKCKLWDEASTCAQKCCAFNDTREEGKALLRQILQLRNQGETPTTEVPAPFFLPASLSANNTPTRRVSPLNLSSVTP
UniProt Q13111, 65-90: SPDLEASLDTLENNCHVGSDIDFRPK
UniProt Q69YH5: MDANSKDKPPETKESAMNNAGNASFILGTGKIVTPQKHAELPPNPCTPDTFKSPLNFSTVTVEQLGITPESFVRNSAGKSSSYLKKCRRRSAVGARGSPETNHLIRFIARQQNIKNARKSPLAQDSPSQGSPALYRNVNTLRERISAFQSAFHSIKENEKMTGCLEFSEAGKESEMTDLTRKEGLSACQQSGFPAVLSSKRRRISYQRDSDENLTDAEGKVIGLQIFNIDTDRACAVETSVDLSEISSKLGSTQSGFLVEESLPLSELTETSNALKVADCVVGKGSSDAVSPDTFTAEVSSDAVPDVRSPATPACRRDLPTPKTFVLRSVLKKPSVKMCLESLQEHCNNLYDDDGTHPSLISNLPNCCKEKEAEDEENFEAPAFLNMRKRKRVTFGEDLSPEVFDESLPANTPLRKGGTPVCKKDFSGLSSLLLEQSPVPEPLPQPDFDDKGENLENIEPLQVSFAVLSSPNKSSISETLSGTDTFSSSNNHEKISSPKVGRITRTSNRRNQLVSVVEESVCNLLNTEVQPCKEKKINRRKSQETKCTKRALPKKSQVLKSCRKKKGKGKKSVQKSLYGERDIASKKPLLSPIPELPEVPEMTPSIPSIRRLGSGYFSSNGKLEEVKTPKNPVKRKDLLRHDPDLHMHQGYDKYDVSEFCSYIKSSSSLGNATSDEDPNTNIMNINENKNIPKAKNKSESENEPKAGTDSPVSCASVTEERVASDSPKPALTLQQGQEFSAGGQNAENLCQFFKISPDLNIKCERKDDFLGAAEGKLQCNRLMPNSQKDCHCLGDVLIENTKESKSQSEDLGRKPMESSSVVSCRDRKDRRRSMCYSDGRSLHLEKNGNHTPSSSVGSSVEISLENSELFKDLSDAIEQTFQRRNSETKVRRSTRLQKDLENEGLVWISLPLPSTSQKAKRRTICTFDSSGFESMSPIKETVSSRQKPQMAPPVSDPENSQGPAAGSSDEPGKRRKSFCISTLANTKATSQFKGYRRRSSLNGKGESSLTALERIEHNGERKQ
UniProt Q86WJ1, 321-348: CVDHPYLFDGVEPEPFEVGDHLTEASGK
UniProt P07199: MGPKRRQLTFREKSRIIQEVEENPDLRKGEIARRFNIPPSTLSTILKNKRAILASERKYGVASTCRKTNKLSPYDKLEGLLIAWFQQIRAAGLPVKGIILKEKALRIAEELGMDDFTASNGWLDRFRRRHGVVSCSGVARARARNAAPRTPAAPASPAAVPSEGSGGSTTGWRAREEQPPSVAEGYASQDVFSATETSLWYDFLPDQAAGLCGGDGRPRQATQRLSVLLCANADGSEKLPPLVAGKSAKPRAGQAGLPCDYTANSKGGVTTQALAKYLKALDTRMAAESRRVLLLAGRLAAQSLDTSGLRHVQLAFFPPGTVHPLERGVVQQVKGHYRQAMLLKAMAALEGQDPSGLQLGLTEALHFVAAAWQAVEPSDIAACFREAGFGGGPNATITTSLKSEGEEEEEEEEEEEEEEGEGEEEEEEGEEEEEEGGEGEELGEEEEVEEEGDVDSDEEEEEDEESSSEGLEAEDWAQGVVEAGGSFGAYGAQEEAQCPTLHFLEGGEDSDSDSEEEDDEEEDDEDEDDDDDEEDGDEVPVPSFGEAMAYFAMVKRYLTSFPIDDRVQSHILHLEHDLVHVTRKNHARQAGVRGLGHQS
UniProt Q9HCU4: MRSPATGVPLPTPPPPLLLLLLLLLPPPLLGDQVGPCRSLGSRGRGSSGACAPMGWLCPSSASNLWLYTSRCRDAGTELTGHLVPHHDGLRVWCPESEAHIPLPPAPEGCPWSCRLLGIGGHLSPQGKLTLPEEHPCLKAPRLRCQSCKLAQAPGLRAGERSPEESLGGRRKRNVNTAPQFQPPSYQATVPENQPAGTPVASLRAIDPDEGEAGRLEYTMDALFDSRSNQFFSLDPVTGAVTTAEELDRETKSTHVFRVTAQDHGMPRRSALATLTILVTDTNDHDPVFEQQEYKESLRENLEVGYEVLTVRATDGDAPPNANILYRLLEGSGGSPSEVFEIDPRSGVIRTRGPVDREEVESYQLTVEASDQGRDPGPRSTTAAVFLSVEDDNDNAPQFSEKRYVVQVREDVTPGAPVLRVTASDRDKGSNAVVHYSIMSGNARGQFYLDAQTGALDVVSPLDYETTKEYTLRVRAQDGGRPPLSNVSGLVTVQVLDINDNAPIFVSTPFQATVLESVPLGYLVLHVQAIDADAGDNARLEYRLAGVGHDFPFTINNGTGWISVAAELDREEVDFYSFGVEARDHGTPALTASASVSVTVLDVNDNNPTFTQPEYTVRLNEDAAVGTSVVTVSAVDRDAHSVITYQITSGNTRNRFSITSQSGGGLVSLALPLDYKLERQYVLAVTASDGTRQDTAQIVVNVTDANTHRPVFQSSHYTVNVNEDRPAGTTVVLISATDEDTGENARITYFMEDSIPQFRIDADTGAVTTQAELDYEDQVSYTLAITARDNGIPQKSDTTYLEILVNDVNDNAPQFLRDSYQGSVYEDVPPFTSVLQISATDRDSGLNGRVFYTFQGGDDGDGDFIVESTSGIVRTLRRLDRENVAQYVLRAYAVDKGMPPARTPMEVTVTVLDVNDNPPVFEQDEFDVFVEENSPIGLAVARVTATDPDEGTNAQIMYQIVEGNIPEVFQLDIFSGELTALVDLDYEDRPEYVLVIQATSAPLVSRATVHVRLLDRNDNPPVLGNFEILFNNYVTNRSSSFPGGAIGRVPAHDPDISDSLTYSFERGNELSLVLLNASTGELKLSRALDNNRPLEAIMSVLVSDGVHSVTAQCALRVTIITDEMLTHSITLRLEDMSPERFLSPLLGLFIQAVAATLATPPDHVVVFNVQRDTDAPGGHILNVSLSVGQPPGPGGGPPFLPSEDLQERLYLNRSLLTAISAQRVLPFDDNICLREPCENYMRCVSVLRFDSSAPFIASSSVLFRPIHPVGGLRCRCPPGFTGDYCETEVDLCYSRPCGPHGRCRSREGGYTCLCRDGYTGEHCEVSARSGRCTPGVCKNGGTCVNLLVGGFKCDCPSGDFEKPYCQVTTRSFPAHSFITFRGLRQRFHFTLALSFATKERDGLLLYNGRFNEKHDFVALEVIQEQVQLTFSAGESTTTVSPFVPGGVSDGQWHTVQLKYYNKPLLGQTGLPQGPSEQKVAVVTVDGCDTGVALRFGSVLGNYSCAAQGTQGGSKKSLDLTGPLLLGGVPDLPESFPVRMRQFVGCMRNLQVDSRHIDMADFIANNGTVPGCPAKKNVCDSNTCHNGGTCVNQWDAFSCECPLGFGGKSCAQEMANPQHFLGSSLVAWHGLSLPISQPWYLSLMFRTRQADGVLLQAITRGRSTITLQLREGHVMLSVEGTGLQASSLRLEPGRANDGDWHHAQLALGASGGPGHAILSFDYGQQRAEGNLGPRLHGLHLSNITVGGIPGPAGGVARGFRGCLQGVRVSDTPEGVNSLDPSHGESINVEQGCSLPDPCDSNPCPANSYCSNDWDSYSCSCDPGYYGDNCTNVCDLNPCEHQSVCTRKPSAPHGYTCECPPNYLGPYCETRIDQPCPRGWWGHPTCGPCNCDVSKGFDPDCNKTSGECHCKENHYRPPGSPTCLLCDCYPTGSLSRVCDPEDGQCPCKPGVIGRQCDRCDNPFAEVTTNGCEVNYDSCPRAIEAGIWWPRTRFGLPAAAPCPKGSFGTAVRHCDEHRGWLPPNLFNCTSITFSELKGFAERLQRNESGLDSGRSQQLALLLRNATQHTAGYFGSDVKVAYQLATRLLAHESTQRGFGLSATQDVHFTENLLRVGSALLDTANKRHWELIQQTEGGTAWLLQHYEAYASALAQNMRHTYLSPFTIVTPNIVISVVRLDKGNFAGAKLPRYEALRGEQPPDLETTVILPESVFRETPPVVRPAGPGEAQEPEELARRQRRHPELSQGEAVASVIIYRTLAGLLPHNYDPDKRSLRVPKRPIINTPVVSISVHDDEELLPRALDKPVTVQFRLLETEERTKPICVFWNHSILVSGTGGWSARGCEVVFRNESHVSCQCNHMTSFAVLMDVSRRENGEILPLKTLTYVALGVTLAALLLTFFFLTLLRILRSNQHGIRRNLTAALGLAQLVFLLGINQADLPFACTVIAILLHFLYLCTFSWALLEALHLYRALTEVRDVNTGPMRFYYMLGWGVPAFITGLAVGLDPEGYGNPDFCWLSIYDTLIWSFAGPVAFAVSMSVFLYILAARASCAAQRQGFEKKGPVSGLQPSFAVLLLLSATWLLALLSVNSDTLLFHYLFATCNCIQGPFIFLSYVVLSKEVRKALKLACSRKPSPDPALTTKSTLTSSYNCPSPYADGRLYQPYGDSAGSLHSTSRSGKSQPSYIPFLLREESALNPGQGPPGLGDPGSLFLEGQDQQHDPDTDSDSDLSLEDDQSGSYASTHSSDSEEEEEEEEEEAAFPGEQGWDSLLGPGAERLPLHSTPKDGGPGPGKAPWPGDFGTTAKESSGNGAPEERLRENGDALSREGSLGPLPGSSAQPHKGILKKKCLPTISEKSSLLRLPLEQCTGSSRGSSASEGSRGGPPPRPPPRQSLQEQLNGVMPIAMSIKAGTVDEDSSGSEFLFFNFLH
UniProt Q9BYV8: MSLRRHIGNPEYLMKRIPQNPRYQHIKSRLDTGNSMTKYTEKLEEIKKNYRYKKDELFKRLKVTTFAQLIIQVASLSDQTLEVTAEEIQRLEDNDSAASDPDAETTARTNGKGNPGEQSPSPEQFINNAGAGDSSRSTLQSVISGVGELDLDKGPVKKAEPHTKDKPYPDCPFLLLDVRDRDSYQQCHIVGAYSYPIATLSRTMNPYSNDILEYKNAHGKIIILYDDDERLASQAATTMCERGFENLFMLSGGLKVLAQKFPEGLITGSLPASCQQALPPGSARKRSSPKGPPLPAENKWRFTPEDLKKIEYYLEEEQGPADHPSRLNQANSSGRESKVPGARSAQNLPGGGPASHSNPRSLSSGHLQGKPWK
UniProt Q00534, whole entry, looked up: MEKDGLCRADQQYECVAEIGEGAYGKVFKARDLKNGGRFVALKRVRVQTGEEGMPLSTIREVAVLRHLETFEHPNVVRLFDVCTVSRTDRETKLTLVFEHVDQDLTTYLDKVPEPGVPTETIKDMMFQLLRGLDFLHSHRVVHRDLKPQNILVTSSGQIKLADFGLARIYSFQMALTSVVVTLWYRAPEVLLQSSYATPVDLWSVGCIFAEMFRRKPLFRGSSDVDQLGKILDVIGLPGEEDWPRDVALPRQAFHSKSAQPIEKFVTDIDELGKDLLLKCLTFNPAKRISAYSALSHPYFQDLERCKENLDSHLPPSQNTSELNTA
UniProt Q96JB5: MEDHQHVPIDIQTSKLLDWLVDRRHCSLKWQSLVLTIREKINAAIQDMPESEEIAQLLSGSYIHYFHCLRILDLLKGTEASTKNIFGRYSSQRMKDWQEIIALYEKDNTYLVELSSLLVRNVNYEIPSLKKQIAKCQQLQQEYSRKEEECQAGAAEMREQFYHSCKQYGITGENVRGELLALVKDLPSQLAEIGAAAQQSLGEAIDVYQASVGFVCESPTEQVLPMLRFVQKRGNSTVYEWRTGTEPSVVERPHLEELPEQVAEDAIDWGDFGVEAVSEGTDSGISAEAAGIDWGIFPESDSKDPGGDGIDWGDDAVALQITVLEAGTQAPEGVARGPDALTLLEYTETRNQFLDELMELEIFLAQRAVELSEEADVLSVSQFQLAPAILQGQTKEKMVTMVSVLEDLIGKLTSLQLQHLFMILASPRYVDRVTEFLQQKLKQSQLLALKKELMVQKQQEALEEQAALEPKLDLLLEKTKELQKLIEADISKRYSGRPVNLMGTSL
UniProt Q9Y6H1: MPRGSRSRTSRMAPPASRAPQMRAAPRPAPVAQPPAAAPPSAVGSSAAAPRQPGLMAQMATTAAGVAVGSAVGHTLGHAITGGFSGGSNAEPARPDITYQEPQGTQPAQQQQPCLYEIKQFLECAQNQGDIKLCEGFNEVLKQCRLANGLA

Experiments:
[1] = compound: ClCC(=O)N[C@@H]1CCCc2ccccc12; assay: log2 mean competition ratio of IA-DTB cysteine labelling (DMSO/compound) (log2 ratio); higher = stronger cysteine engagement by compound; conditions: treatment time: 4 h, cell line lysate: HEK293T
Procedure: (§1)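 IA-DTB competitive cysteine chemoproteomics in HEK293T RIPA lysate. Lysates were treated with compound 29 or 30 at 50 or 200 µM for 4 h, then IA-DTB (500 µM, 1 h), trypsin-digested, NeutrAvidin-enriched and analysed by diaPASEF. Competition ratio = intensity DMSO / intensity compound (n=4 treated, n=64 DMSO); binding: mean log2 CR ≥ 1 and p ≤ 0.05 plus QC filters. Target is the cysteine site.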

[2] = compound: ClCC(=O)N[C@H]1CCCc2ccccc12; assay: as above; conditions: treatment time: 4 h, cell line lysate: HEK293T
Procedure: as §1

## CDC23 C489 (UniProt Q9UJX2)
[1]; 50 µM
  log2 mean competition ratio: -0.062
[1]; 200 µM
  log2 mean competition ratio: -0.197
[2]; 50 µM
  log2 mean competition ratio: 0.039
[2]; 200 µM
  log2 mean competition ratio: -0.203

## CHAF1A C79 (UniProt Q13111)
[1]; 50 µM
  log2 mean competition ratio: 0.158
[1]; 200 µM
  log2 mean competition ratio: 0.0906
[2]; 50 µM
  log2 mean competition ratio: 0.0669
[2]; 200 µM
  log2 mean competition ratio: -0.112

## CDCA2 C824 (UniProt Q69YH5)
[1]; 50 µM
  log2 mean competition ratio: 0.0508
[1]; 200 µM
  log2 mean competition ratio: 0.286
[2]; 50 µM
  log2 mean competition ratio: 0.306
[2]; 200 µM
  log2 mean competition ratio: 0.115

## CENPF C1029 (UniProt P49454)
[1]; 50 µM
  log2 mean competition ratio: 0.364
[1]; 200 µM
  log2 mean competition ratio: -0.184
[2]; 50 µM
  log2 mean competition ratio: 0.0774
[2]; 200 µM
  log2 mean competition ratio: -0.507

## CCDC51 C316 (UniProt Q96ER9)
[1]; 50 µM
  log2 mean competition ratio: -0.383
[1]; 200 µM
  log2 mean competition ratio: 0.229
[2]; 50 µM
  log2 mean competition ratio: 0.123
[2]; 200 µM
  log2 mean competition ratio: -0.207

## CHD1L C321 (UniProt Q86WJ1)
[1]; 50 µM
  log2 mean competition ratio: -0.562
[1]; 200 µM
  log2 mean competition ratio: -0.253
[2]; 50 µM
  log2 mean competition ratio: 0.512
[2]; 200 µM
  log2 mean competition ratio: -0.332

## CERT1 C185
[1]; 50 µM
  log2 mean competition ratio: 0.00962
[1]; 200 µM
  log2 mean competition ratio: 0.122
[2]; 50 µM
  log2 mean competition ratio: -0.588
[2]; 200 µM
  log2 mean competition ratio: -0.055

## CDCA7 C289
[1]; 50 µM
  log2 mean competition ratio: -0.0806
[1]; 200 µM
  log2 mean competition ratio: -0.128
[2]; 50 µM
  log2 mean competition ratio: -0.128
[2]; 200 µM
  log2 mean competition ratio: 0.646

## CDK2AP1;CDK2AP2 C105;(C116)
[1]; 50 µM
  log2 mean competition ratio: -0.162
[1]; 200 µM
  log2 mean competition ratio: 0.168
[2]; 50 µM
  log2 mean competition ratio: 0.126
[2]; 200 µM
  log2 mean competition ratio: 0.303

## CDK5 C94 (UniProt Q00535)
[1]; 50 µM
  log2 mean competition ratio: -0.138
[1]; 200 µM
  log2 mean competition ratio: -0.00468
[2]; 50 µM
  log2 mean competition ratio: -0.0336
[2]; 200 µM
  log2 mean competition ratio: 0.0866

## CEP43 C244
[1]; 50 µM
  log2 mean competition ratio: -0.439
[1]; 200 µM
  log2 mean competition ratio: -0.0189
[2]; 50 µM
  log2 mean competition ratio: -0.233
[2]; 200 µM
  log2 mean competition ratio: 0.102

## CFAP97 C504 (UniProt Q9P2B7)
[1]; 50 µM
  log2 mean competition ratio: 0.104
[1]; 200 µM
  log2 mean competition ratio: 0.162
[2]; 50 µM
  log2 mean competition ratio: -0.0534
[2]; 200 µM
  log2 mean competition ratio: 0.314

## CCAR2 C754
[1]; 50 µM
  log2 mean competition ratio: 0.149
[1]; 200 µM
  log2 mean competition ratio: 0.498
[2]; 50 µM
  log2 mean competition ratio: 0.409
[2]; 200 µM
  log2 mean competition ratio: 0.28

## CDCA2 C835 (UniProt Q69YH5)
[1]; 50 µM
  log2 mean competition ratio: -0.0295
[1]; 200 µM
  log2 mean competition ratio: 0.241
[2]; 50 µM
  log2 mean competition ratio: -0.0669
[2]; 200 µM
  log2 mean competition ratio: 0.2

## CCT3 C213
[1]; 50 µM
  log2 mean competition ratio: -0.366
[1]; 200 µM
  log2 mean competition ratio: 0.202
[2]; 50 µM
  log2 mean competition ratio: -0.443
[2]; 200 µM
  log2 mean competition ratio: 0.195

## CENPU C239 (UniProt Q71F23)
[1]; 50 µM
  log2 mean competition ratio: -0.166
[1]; 200 µM
  log2 mean competition ratio: 0.244
[2]; 50 µM
  log2 mean competition ratio: -0.451
[2]; 200 µM
  log2 mean competition ratio: 0.127

## CDK5RAP1 C183 (UniProt Q96SZ6)
[1]; 50 µM
  log2 mean competition ratio: 0.4
[1]; 200 µM
  log2 mean competition ratio: 0.18
[2]; 50 µM
  log2 mean competition ratio: -0.034
[2]; 200 µM
  log2 mean competition ratio: 0.149

## CCT3 C455
[1]; 50 µM
  log2 mean competition ratio: 0.0354
[1]; 200 µM
  log2 mean competition ratio: -0.172
[2]; 50 µM
  log2 mean competition ratio: -0.0804
[2]; 200 µM
  log2 mean competition ratio: -0.148

## CEBPZ C560 (UniProt Q03701)
[1]; 50 µM
  log2 mean competition ratio: 0.0664
[1]; 200 µM
  log2 mean competition ratio: 0.414
[2]; 50 µM
  log2 mean competition ratio: 0.0835
[2]; 200 µM
  log2 mean competition ratio: 0.654

## CDX2 C166
[1]; 50 µM
  log2 mean competition ratio: 0.236
[1]; 200 µM
  log2 mean competition ratio: 0.325
[2]; 50 µM
  log2 mean competition ratio: 0.452
[2]; 200 µM
  log2 mean competition ratio: 0.507

## CDCA2 C235 (UniProt Q69YH5)
[1]; 50 µM
  log2 mean competition ratio: -0.335
[1]; 200 µM
  log2 mean competition ratio: -0.314
[2]; 50 µM
  log2 mean competition ratio: 0.101
[2]; 200 µM
  log2 mean competition ratio: -0.407

## CDC27 C137
[1]; 50 µM
  log2 mean competition ratio: -0.123
[1]; 200 µM
  log2 mean competition ratio: -0.149
[2]; 50 µM
  log2 mean competition ratio: 0.0215
[2]; 200 µM
  log2 mean competition ratio: -0.093

## CEP63 C53 (UniProt Q96MT8)
[1]; 50 µM
  log2 mean competition ratio: -0.289
[1]; 200 µM
  log2 mean competition ratio: -0.183
[2]; 50 µM
  log2 mean competition ratio: -0.148
[2]; 200 µM
  log2 mean competition ratio: -0.199

## CDC42EP4 C313 (UniProt Q9H3Q1)
[1]; 50 µM
  log2 mean competition ratio: -0.291
[1]; 200 µM
  log2 mean competition ratio: -0.0571
[2]; 50 µM
  log2 mean competition ratio: 0.186
[2]; 200 µM
  log2 mean competition ratio: 0.108

## CENPB C65 (UniProt P07199)
[1]; 50 µM
  log2 mean competition ratio: 0.228
[1]; 200 µM
  log2 mean competition ratio: 0.168
[2]; 50 µM
  log2 mean competition ratio: 0.463
[2]; 200 µM
  log2 mean competition ratio: 0.148

## CELSR2 C1323 (UniProt Q9HCU4)
[1]; 50 µM
  log2 mean competition ratio: 0.0395
[1]; 200 µM
  log2 mean competition ratio: 0.269
[2]; 50 µM
  log2 mean competition ratio: -0.35
[2]; 200 µM
  log2 mean competition ratio: 0.63

## CHD1L C123 (UniProt Q86WJ1)
[1]; 50 µM
  log2 mean competition ratio: 0.403
[1]; 200 µM
  log2 mean competition ratio: 0.41
[2]; 50 µM
  log2 mean competition ratio: 0.0882
[2]; 200 µM
  log2 mean competition ratio: 0.387

## CFL1 C39
[1]; 50 µM
  log2 mean competition ratio: -0.357
[1]; 200 µM
  log2 mean competition ratio: -0.225
[2]; 50 µM
  log2 mean competition ratio: -0.295
[2]; 200 µM
  log2 mean competition ratio: -0.625

## CFL2 C39 (UniProt Q9Y281)
[1]; 50 µM
  log2 mean competition ratio: -0.151
[1]; 200 µM
  log2 mean competition ratio: 0.286
[2]; 50 µM
  log2 mean competition ratio: -0.316
[2]; 200 µM
  log2 mean competition ratio: 0.305

## CEP41 C240 (UniProt Q9BYV8)
[1]; 50 µM
  log2 mean competition ratio: -0.0747
[1]; 200 µM
  log2 mean competition ratio: -0.0569
[2]; 50 µM
  log2 mean competition ratio: 0.149
[2]; 200 µM
  log2 mean competition ratio: 0.0447

## CDK6 C280 (UniProt Q00534)
[1]; 50 µM
  log2 mean competition ratio: -0.0264
[1]; 200 µM
  log2 mean competition ratio: 0.0565
[2]; 50 µM
  log2 mean competition ratio: 0.133
[2]; 200 µM
  log2 mean competition ratio: -0.0316

## CDK5RAP3 C165 (UniProt Q96JB5)
[1]; 50 µM
  log2 mean competition ratio: 0.126
[1]; 200 µM
  log2 mean competition ratio: -0.0193
[2]; 50 µM
  log2 mean competition ratio: -0.0225
[2]; 200 µM
  log2 mean competition ratio: -0.0974

## CDCA2 C46 (UniProt Q69YH5)
[1]; 50 µM
  log2 mean competition ratio: -0.106
[1]; 200 µM
  log2 mean competition ratio: 0.0827
[2]; 50 µM
  log2 mean competition ratio: -0.0325
[2]; 200 µM
  log2 mean competition ratio: 0.0415

## CCT2 C289 (UniProt P78371)
[1]; 50 µM
  log2 mean competition ratio: -0.112
[1]; 200 µM
  log2 mean competition ratio: 0.099
[2]; 50 µM
  log2 mean competition ratio: 0.0431
[2]; 200 µM
  log2 mean competition ratio: 0.0077

## CEP170B C217 (UniProt Q9Y4F5)
[1]; 50 µM
  log2 mean competition ratio: 0.0309
[1]; 200 µM
  log2 mean competition ratio: 0.0746
[2]; 50 µM
  log2 mean competition ratio: -0.191
[2]; 200 µM
  log2 mean competition ratio: 0.077

## CENPF C2680 (UniProt P49454)
[1]; 50 µM
  log2 mean competition ratio: 0.0452
[1]; 200 µM
  log2 mean competition ratio: -0.198
[2]; 50 µM
  log2 mean competition ratio: -0.0314
[2]; 200 µM
  log2 mean competition ratio: -0.553

## CCT5 C181 (UniProt P48643)
[1]; 50 µM
  log2 mean competition ratio: 0.174
[1]; 200 µM
  log2 mean competition ratio: -0.426
[2]; 50 µM
  log2 mean competition ratio: 0.19
[2]; 200 µM
  log2 mean competition ratio: -0.378

## CDC6 C44 (UniProt Q99741)
[1]; 50 µM
  log2 mean competition ratio: 0.0774
[1]; 200 µM
  log2 mean competition ratio: -0.0154
[2]; 50 µM
  log2 mean competition ratio: -0.0373
[2]; 200 µM
  log2 mean competition ratio: -0.0067

## CDCA2 C188 (UniProt Q69YH5)
[1]; 50 µM
  log2 mean competition ratio: 0.14
[1]; 200 µM
  log2 mean competition ratio: 0.436
[2]; 50 µM
  log2 mean competition ratio: -0.0587
[2]; 200 µM
  log2 mean competition ratio: 0.512

## CENPE C714 (UniProt Q02224)
[1]; 50 µM
  log2 mean competition ratio: -0.234
[1]; 200 µM
  log2 mean competition ratio: 0.331
[2]; 50 µM
  log2 mean competition ratio: -0.264
[2]; 200 µM
  log2 mean competition ratio: 0.592

## CHCHD2 C134 (UniProt Q9Y6H1)
[1]; 50 µM
  log2 mean competition ratio: 0.121
[1]; 200 µM
  log2 mean competition ratio: 0.231
[2]; 50 µM
  log2 mean competition ratio: -0.0958
[2]; 200 µM
  log2 mean competition ratio: 0.268

## CCDC102A C150 (UniProt Q96A19)
[1]; 50 µM
  log2 mean competition ratio: -0.242
[1]; 200 µM
  log2 mean competition ratio: 0.322
[2]; 50 µM
  log2 mean competition ratio: -0.261
[2]; 200 µM
  log2 mean competition ratio: 0.151

## CDCA2 C280 (UniProt Q69YH5)
[1]; 50 µM
  log2 mean competition ratio: -0.173
[1]; 200 µM
  log2 mean competition ratio: 0.0262
[2]; 50 µM
  log2 mean competition ratio: 0.0484
[2]; 200 µM
  log2 mean competition ratio: 0.172

## CELF1 C119 (UniProt Q92879)
[1]; 50 µM
  log2 mean competition ratio: -0.178
[1]; 200 µM
  log2 mean competition ratio: -0.0515
[2]; 50 µM
  log2 mean competition ratio: -0.246
[2]; 200 µM
  log2 mean competition ratio: -0.0483

## CDC5L C769 (UniProt Q99459)
[1]; 50 µM
  log2 mean competition ratio: -0.0307
[1]; 200 µM
  log2 mean competition ratio: 0.251
[2]; 50 µM
  log2 mean competition ratio: -0.418
[2]; 200 µM
  log2 mean competition ratio: 0.092
